Laboratory results from PMC11264591.

T1: HA-EccGAS (Epinephelus coioides cyclic GMP-AMP synthase) (Epinephelus coioides)
T1 sequence: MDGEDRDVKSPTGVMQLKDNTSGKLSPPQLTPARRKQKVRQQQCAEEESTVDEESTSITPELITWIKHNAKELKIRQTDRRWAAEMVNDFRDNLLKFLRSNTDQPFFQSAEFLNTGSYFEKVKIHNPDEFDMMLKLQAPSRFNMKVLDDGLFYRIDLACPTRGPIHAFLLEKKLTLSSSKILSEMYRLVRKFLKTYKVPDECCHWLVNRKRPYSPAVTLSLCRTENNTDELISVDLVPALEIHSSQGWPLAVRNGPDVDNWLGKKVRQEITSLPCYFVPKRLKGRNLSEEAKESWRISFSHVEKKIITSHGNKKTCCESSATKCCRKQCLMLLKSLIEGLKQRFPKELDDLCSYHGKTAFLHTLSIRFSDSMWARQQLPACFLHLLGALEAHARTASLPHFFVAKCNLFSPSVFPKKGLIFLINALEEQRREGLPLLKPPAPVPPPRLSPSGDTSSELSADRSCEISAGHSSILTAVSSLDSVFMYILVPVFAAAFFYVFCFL


Experiments:
[1] = biological target: T1, HA-EccGAS (Epinephelus coioides cyclic GMP-AMP synthase) (Epinephelus coioides); experiment: co-IP; co-IP of EccGAS and EcUBE3C in transfected cells (Fig. 7B); cells, tags and beads not told
[2] = biological target: T1, HA-EccGAS (Epinephelus coioides cyclic GMP-AMP synthase) (Epinephelus coioides); experiment: co-IP; co-transfected cells lysed with RNase to remove a possible RNA bridge; Western blot
[3] = biological target: T1, HA-EccGAS (Epinephelus coioides cyclic GMP-AMP synthase) (Epinephelus coioides); experiment: co-IP; GB or HEK 293T cells co-transfected with HA-EccGAS and GFP-tagged NNV proteins; lysate precipitated with anti-HA magnetic beads; Western blot
[4] = biological target: GFP-CP (NNV capsid protein) (nervous necrosis virus (OGNNV, RGNNV genotype)); experiment: co-IP; cells co-transfected with HA-EccGAS and GFP-tagged NNV proteins; lysate precipitated with anti-GFP magnetic beads; Western blot
[5] = biological target: GFP-ProA (NNV Protein A, RNA-dependent RNA polymerase) (nervous necrosis virus (OGNNV, RGNNV genotype)); experiment: as above

| Molecule | binding [1] | binding [2] | binding [3] | binding [4] | binding [5] |
| --- | --- | --- | --- | --- | --- |
| EcUBE3C (Epinephelus coioides E3 ubiquitin ligase UBE3C) (enzyme) | binds |  |  |  |  |
| GFP-CP (NNV capsid protein) |  | binds | binds |  |  |
| GFP-ProA (NNV Protein A, RNA-dependent RNA polymerase) |  | binds | binds |  |  |
| HA-EccGAS (Epinephelus coioides cyclic GMP-AMP synthase) (protein, UniProt A0A509ZL19 1-503) MDGEDRDVKSPTGVMQLKDNTSGKLSPPQLTPARRKQKVRQQQCAEEESTVDEESTSITPELITWIKHNAKELKIRQTDRRWAAEMVNDFRDNLLKFLRSNTDQPFFQSAEFLNTGSYFEKVKIHNPDEFDMMLKLQAPSRFNMKVLDDGLFYRIDLACPTRGPIHAFLLEKKLTLSSSKILSEMYRLVRKFLKTYKVPDECCHWLVNRKRPYSPAVTLSLCRTENNTDELISVDLVPALEIHSSQGWPLAVRNGPDVDNWLGKKVRQEITSLPCYFVPKRLKGRNLSEEAKESWRISFSHVEKKIITSHGNKKTCCESSATKCCRKQCLMLLKSLIEGLKQRFPKELDDLCSYHGKTAFLHTLSIRFSDSMWARQQLPACFLHLLGALEAHARTASLPHFFVAKCNLFSPSVFPKKGLIFLINALEEQRREGLPLLKPPAPVPPPRLSPSGDTSSELSADRSCEISAGHSSILTAVSSLDSVFMYILVPVFAAAFFYVFCFL |  |  |  | binds | binds |

Results are given in words; binding and its absence hold for the method and conditions named. In cells and extracts the contact can be indirect. Binding calls can cover weak binding; strength is not graded here. Tags and fused reporters may be left off the sequences shown.
